From paper PMC12532946
No constants are given. Whether binding was seen depends on the method and setting. In cells and extracts the contact can be indirect. Some binding calls cover weakened binding; strength is not graded here.

By UniProt entry, the sequences of proteins in these tests, tags left out.
UniProt Q8CG73: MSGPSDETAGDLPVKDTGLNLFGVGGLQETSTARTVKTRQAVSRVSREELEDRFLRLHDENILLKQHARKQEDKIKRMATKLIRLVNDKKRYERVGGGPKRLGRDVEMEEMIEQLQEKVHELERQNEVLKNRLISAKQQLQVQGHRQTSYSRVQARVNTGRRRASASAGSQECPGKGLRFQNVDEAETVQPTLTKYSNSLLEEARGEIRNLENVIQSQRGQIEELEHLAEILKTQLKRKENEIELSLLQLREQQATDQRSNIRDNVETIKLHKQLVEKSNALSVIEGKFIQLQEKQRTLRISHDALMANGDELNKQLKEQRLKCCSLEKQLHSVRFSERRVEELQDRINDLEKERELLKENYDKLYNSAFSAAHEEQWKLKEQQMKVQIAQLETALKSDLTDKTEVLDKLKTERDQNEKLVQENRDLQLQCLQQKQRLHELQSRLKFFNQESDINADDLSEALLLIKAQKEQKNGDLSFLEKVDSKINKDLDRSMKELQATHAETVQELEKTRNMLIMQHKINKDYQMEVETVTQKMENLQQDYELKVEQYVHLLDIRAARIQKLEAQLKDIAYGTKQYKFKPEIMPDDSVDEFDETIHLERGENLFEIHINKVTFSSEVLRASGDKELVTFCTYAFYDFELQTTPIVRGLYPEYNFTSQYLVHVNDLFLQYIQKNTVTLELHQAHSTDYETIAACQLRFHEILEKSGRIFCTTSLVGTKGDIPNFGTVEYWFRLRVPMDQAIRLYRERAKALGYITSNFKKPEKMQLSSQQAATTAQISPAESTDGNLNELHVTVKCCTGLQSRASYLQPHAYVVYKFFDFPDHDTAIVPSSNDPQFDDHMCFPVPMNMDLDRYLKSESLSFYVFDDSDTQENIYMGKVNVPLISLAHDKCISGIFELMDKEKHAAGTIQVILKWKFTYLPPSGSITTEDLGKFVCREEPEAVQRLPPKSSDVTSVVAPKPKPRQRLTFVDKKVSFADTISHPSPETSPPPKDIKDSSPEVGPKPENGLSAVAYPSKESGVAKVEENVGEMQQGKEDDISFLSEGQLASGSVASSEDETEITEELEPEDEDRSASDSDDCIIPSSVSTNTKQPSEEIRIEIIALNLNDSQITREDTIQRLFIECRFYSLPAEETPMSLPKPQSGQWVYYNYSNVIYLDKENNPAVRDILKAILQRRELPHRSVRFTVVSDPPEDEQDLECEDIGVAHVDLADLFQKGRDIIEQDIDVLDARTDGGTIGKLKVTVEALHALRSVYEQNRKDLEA

Target: retinitis pigmentosa GTPase regulator-interacting protein 1-like (Rpgrip1l) (mouse (endogenous in mouse embryonic fibroblasts)) (UniProt Q8CG73)
Test: proximity ligation; in situ PLA (Duolink, Detection Reagents Orange) on fixed, serum-starved mouse embryonic fibroblasts transiently transfected with IFT88-EYFP to mark cilia; endogenous proteins detected by primary antibodies; signal means proximity < 40 nm

B1: retinitis pigmentosa GTPase regulator-interacting protein 1 (Rpgrip1) (protein, UniProt Q9EPQ2 1-1331)
chain: MQHLLEYMPEDLPVRDTDSSPLLKGTSGKNVRAQPHLGRMNQKELNCRRLHLHEEPTLVKEPSPKQRDKNRRRRTNVQRSTTTQPDLRTLAVLQEPERRRRPWVSASPSPSAPPRAPVPGRKAHVQRLCPSTAVGSAQPRVHAGRRLPHIAGPNDRRSHTAPPAFKDYVADKNTRIEITREPSQLTHTMTTDSTHVEEIPRSPEKTSKVEKPEQRSSEECTQKAAELRASIKENVELIRLKKLLQERNTSLAATEAQLTRVQEAYEDLLQKNQGILDTAHNAFLSQVNELKAELSEESKKAVSLRTQLGDVSILQITLKEFQVRVEDLEKERKLLSDSYDRLLENMLDSSHQPLDSSHQPHWSTELTGKQLPPQVCPLLDQMGTALEETKVFRQATNKAAQDGKLKFQDTDILYQHEQEEESLQSTATVASSPEELCELAAQPTLLPQTDQRESSEPKAQDENDLSQVLSELQVSHAETTLELEKTRDMLLLQRKINMCYQEELEATLTKADRENRDHEEKLERLNHLLDFKNSRIKQLEGILRSHGLPTSEQLKDVAYGTLPPSLCLEPLAAHRGDDEVDMSLLHPSENLFELHVHQAFLTPAALTQAGDTQPTTFCTYSFYDFETHCTPLSTGPQPLYDFTSQYVVQADYLLLHYLQGTSVRLDLHQAMASEYHVLATGWISLDKVLGTVERVHGLATLAGAGGEDLGVLEYWMRLCLPLKPSLQACNKRKKAQAYLSVSVLGARKVQSNESRSETWAPQNELRVEITRCCGLRSRRLGRQPSPYVMYRFFTFPDHDTIIIPASSNPYFKDQALFPVLVTSDLDQYLRREALSVYVFDDEDPEPGSYLGRAQVPLLPLAQNKSIKGDFNLTDSGEKSNGSIKVQLDWKSHYLAPEGFQMSEAEKPEGEEKEEEGGEEEVKEEEVEEEEEEEEEEEEVKEEKEEEEEEEREEEEEKEEEKEEEEEEDEKEEEEEEEEEEEEEEEDENKDVLEASFTEEWVPFFSQDQIASTEIPIEAGQYPEKRKPPVIAEKKEREHQVASYSRRKHSKKPGVQDKNRMEYLSCNILNGNTQQMHYTEWKFSGLKKAEDGGLKAQDKREEPPSPRSALRQEHPSHPRNAFSLADQESCEQASEVSETQTTDSDDIIVTPQAQTVPKADSEKMCIEIVSLAFCPEADVMSDETIQQVYVEYKFCDLPLSETETPMSLRKPRAGEEIHFHFSKVIDLDPVEHQSRRQFLFAMLHAQDSDEGRFKFTVVSDPLDEEKKECQDIGYAYLELWQIFQSGKDILEQELEIVSPRNQAIQIGRLKVSLQAAAALHGIYKEMTEDLFS
Q: For B1, which binding is on record?
A: The binding was “binds”.
